Source: article doi:10.1101/2021.07.07.451439
Read-outs that look alike come from different tables or passages of the source. These are yes or no findings as the source states them, for the method shown. Binding seen in cells or lysates may run through a third protein. These calls come from enrichment with a bait or labelling near it, and not all partners need be listed.

Protein sequences, listed by entry. Tags and fused reporters are not part of them. Lines headed by an entry give the natural chain unless they say otherwise; changes in a name come on top.
UniProt Q96EI5: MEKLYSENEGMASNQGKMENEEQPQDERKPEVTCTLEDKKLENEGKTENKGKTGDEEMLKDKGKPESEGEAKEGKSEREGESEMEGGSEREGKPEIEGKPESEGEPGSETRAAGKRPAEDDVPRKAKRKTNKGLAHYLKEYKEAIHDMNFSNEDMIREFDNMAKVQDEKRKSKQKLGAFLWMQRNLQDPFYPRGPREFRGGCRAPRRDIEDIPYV
UniProt Q93009: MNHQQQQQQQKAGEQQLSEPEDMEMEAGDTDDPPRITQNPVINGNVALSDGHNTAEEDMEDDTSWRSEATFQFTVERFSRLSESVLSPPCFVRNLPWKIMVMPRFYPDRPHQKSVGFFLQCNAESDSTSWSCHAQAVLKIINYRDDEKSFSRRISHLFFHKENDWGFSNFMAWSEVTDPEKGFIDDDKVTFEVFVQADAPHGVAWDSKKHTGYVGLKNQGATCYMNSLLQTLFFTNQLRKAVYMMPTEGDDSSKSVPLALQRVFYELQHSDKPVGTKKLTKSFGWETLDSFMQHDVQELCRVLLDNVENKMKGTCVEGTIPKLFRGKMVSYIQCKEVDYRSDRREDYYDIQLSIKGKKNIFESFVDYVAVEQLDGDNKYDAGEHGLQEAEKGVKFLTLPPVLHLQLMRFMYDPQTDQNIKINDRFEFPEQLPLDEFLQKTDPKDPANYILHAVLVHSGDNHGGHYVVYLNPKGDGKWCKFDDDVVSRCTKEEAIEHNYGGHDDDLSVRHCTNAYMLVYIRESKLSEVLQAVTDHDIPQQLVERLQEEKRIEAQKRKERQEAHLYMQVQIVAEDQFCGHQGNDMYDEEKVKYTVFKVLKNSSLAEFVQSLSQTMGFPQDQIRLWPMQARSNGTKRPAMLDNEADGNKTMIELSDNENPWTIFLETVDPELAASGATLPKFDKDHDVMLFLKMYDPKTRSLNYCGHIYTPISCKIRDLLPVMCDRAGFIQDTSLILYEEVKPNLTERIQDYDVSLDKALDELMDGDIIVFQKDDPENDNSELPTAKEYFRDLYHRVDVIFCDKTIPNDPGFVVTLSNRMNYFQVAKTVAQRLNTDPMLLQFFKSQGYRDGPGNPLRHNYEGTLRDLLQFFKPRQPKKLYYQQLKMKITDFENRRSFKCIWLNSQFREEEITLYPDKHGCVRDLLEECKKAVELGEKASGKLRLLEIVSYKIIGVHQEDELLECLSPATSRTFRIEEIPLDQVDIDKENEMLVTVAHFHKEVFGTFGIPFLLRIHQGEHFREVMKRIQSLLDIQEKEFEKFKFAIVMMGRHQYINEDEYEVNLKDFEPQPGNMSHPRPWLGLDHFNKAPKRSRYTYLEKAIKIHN
UniProt Q13257: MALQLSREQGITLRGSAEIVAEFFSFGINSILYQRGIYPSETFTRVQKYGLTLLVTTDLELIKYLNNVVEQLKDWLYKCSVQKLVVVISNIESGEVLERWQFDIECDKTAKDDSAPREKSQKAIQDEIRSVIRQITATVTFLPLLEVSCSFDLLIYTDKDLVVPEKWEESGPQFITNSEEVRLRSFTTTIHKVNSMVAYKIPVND
UniProt O43684: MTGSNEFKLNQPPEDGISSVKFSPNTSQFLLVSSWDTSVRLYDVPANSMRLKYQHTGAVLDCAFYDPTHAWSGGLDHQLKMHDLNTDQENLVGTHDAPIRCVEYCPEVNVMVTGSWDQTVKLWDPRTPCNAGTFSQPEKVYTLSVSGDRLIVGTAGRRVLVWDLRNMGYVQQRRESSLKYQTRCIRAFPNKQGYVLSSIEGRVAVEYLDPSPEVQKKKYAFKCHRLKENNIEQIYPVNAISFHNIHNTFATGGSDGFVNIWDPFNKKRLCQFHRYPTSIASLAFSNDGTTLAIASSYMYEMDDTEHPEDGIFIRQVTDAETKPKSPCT

What was measured:
Assay in all cases: affinity purification with mass spectrometry
[1] = molecular target: GFP-TCEAL4 WT isoform-1 (human) (UniProt Q96EI5)
GFP-USP7 S18E = GFP-USP7 S18E (UniProt Q93009)
GFP-USP7 S18A = GFP-USP7 S18A (UniProt Q93009)
GFP-USP7 WT = GFP-USP7 WT (UniProt Q93009)
[2] = molecular target: GFP-TCEAL4 WT isoform-1 (human) (UniProt Q96EI5); remark: listed apart in the source

MAD2 (endogenous) (from UniProt Q13257 1-205)
binding [1]: binds

BUB3 (endogenous) (from UniProt O43684 1-328)
binding [1]: binds

B1: PJA1 (endogenous) (protein, UniProt Q8NG27 1-643)
chain: MGQESSKPVWPNPTGGYQSNTGRRYGRRHAYVSFRPPTSQRERIASQRKTNSEVPMHRSAPSQTTKRSRSPFSTTRRSWDDSESSGTNLNIDNEDYSRYPPREYRASGSRRGMAYGHIDSYGADDSEEEGAGPVERPPVRGKTGKFKDDKLYDPEKGARSLAGPPPHFSSFSRDVREERDKLDPVPAARCSASRADFLPQSSVASQSSSEGKLATKGDSSERERREQNLPARPSRAPVSICGGGENTSKSAEEPVVRPKIRNLASPNCVKPKIFFDTDDDDDMPHSTSRWRDTANDNEGHSDGLARRGRGESSSGYPEPKYPEDKREARSDQVKPEKVPRRRRTMADPDFWTHSDDYYKYCDEDSDSDKEWIAALRRKYRSREQTLSSSGESWETLPGKEEREPPQAKVSASTGTSPGPGASASAGAGAGASAGSNGSNYLEEVREPSLQEEQASLEEGEIPWLQYHENDSSSEGDNDSGHELMQPGVFMLDGNNNLEDDSSVSEDLEVDWSLFDGFADGLGVAEAISYVDPQFLTYMALEERLAQAMETALAHLESLAVDVEVANPPASKESIDALPEILVTEDHGAVGQEMCCPICCSEYVKGEVATELPCHHYFHKPCVSIWLQKSGTCPVCRCMFPPPL
binding (GFP-USP7 S18E): binds

B2: MAGED1 (endogenous) (protein, UniProt Q9Y5V3 1-778)
chain: MAQKMDCGAGLLGFQAEASVEDSALLMQTLMEAIQISEAPPTNQATAAASPQSSQPPTANEMADIQVSAAAARPKSAFKVQNATTKGPNGVYDFSQAHNAKDVPNTQPKAAFKSQNATPKGPNAAYDFSQAATTGELAANKSEMAFKAQNATTKVGPNATYNFSQSLNANDLANSRPKTPFKAWNDTTKAPTADTQTQNVNQAKMATSQADIETDPGISEPDGATAQTSADGSQAQNLESRTIIRGKRTRKINNLNVEENSSGDQRRAPLAAGTWRSAPVPVTTQNPPGAPPNVLWQTPLAWQNPSGWQNQTARQTPPARQSPPARQTPPAWQNPVAWQNPVIWPNPVIWQNPVIWPNPIVWPGPVVWPNPLAWQNPPGWQTPPGWQTPPGWQGPPDWQGPPDWPLPPDWPLPPDWPLPTDWPLPPDWIPADWPIPPDWQNLRPSPNLRPSPNSRASQNPGAAQPRDVALLQERANKLVKYLMLKDYTKVPIKRSEMLRDIIREYTDVYPEIIERACFVLEKKFGIQLKEIDKEEHLYILISTPESLAGILGTTKDTPKLGLLLVILGVIFMNGNRASEAVLWEALRKMGLRPGVRHPLLGDLRKLLTYEFVKQKYLDYRRVPNSNPPEYEFLWGLRSYHETSKMKVLRFIAEVQKRDPRDWTAQFMEAADEALDALDAAAAEAEARAEARTRMGIGDEAVSGPWSWDDIEFELLTWDEEGDFGDPWSRIPFTFWARYHQNARSRFPQTFAGPIIGPGGTASANFAANFGAIGFFWVE
binding (GFP-USP7 S18E): binds

B3: MAGED4 (endogenous) (protein, UniProt Q96JG8 1-741)
chain: MAEGSFSVQSESYSVEDMDEGSDEVGEEEMVEGNDYEEFGAFGGYGTLTSFDIHILRAFGSLGPGLRILSNEPWELENPVLAQTLVEALQLDPETLANETAARAANVARAAASNRAARAAAAAARTAFSQVVASHRVATPQVSGEDTQPTTYAAEAQGPTPEPPLASPQTSQMLVTSKMAAPEAPATSAQSQTGSPAQEAATEGPSSACAFSQAPCAREVDANRPSTAFLGQNDVFDFTQPAGVSGMAFPRPKRPAPAQEAATEGPSAASGVPQTGPGREVAATRPKTTKSGKALAKTRWVEPQNVVAAAAAKAKMATSIPEPEGAAAATAQHSAEPWARMGGKRTKKSKHLDDEYESSEEERETPAVPPTWRASQPSLTVRAQLAPRPPMAPRSQIPSRHVLCLPPRNVTLLQERANKLVKYLMIKDYKKIPIKRADMLKDVIREYDEHFPEIIERATYTLEKKFGIHLKEIDKEEHLYILVCTRDSSARLLGKTKDTPRLSLLLVILGVIFMNGNRASEAVLWEALRKMGLRPGVRHPFLGDLRKLITDDFVKQKYLEYKKIPNSNPPEYEFLWGLRARHETSKMRVLRFIAQNQNRDPREWKAHFLEAVDDAFKTMDVDMAEEHARAQMRAQMNIGDEALIGRWSWDDIQVELLTWDEDGDFGDAWARIPFAFWARYHQYILNSNRANRRATWRAGVSSGTNGGASTSVLDGPSTSSTIRTRNAARAGASFFSWIQHR
binding (GFP-USP7 S18A): binds
binding (GFP-USP7 S18E): binds
binding (GFP-USP7 WT): binds

B4: USP15 (endogenous) (enzyme, UniProt Q9Y4E8 1-981)
chain: MAEGGAADLDTQRSDIATLLKTSLRKGDTWYLVDSRWFKQWKKYVGFDSWDKYQMGDQNVYPGPIDNSGLLKDGDAQSLKEHLIDELDYILLPTEGWNKLVSWYTLMEGQEPIARKVVEQGMFVKHCKVEVYLTELKLCENGNMNNVVTRRFSKADTIDTIEKEIRKIFSIPDEKETRLWNKYMSNTFEPLNKPDSTIQDAGLYQGQVLVIEQKNEDGTWPRGPSTPKSPGASNFSTLPKISPSSLSNNYNNMNNRNVKNSNYCLPSYTAYKNYDYSEPGRNNEQPGLCGLSNLGNTCFMNSAIQCLSNTPPLTEYFLNDKYQEELNFDNPLGMRGEIAKSYAELIKQMWSGKFSYVTPRAFKTQVGRFAPQFSGYQQQDCQELLAFLLDGLHEDLNRIRKKPYIQLKDADGRPDKVVAEEAWENHLKRNDSIIVDIFHGLFKSTLVCPECAKISVTFDPFCYLTLPLPMKKERTLEVYLVRMDPLTKPMQYKVVVPKIGNILDLCTALSALSGIPADKMIVTDIYNHRFHRIFAMDENLSSIMERDDIYVFEININRTEDTEHVIIPVCLREKFRHSSYTHHTGSSLFGQPFLMAVPRNNTEDKLYNLLLLRMCRYVKISTETEETEGSLHCCKDQNINGNGPNGIHEEGSPSEMETDEPDDESSQDQELPSENENSQSEDSVGGDNDSENGLCTEDTCKGQLTGHKKRLFTFQFNNLGNTDINYIKDDTRHIRFDDRQLRLDERSFLALDWDPDLKKRYFDENAAEDFEKHESVEYKPPKKPFVKLKDCIELFTTKEKLGAEDPWYCPNCKEHQQATKKLDLWSLPPVLVVHLKRFSYSRYMRDKLDTLVDFPINDLDMSEFLINPNAGPCRYNLIAVSNHYGGMGGGHYTAFAKNKDDGKWYYFDDSSVSTASEDQIVSKAAYVLFYQRQDTFSGTGFFPLDRETKGASAATGIPLESDEDSNDNDNDIENENCMHTN
binding [2]: binds

B5: RAE1 (endogenous) (protein, UniProt P78406 1-368)
chain: MSLFGTTSGFGTSGTSMFGSATTDNHNPMKDIEVTSSPDDSIGCLSFSPPTLPGNFLIAGSWANDVRCWEVQDSGQTIPKAQQMHTGPVLDVCWSDDGSKVFTASCDKTAKMWDLSSNQAIQIAQHDAPVKTIHWIKAPNYSCVMTGSWDKTLKFWDTRSSNPMMVLQLPERCYCADVIYPMAVVATAERGLIVYQLENQPSEFRRIESPLKHQHRCVAIFKDKQNKPTGFALGSIEGRVAIHYINPPNPAKDNFTFKCHRSNGTNTSAPQDIYAVNGIAFHPVHGTLATVGSDGRFSFWDKDARTKLKTSEQLDQPISACCFNHNGNIFAYASSYDWSKGHEFYNPQKKNYIFLRNAAEELKPRNKK
binding [2]: binds
